Source: the supplement of paper PMC6411743
± gives the standard deviation of the averaged measurements. The list shows a part of the results, in another mix than the full data.

Sequences of proteins named here, by UniProt entry; tags and fusion partners are left off. A change or cut given only in a name is not applied to a line headed by its entry.
UniProt Q9BZE2: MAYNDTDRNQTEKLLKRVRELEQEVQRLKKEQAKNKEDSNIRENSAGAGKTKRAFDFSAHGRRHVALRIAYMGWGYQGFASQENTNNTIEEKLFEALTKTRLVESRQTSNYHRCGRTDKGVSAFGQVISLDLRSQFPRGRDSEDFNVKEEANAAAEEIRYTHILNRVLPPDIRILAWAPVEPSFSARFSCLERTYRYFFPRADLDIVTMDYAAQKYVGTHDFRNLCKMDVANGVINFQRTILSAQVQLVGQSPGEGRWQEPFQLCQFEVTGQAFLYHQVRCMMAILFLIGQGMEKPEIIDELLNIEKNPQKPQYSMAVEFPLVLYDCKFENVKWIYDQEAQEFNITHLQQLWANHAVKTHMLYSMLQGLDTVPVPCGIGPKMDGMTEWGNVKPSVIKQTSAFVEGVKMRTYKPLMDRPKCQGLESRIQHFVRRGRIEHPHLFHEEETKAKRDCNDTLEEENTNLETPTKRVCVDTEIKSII
UniProt Q9NPA3, whole entry: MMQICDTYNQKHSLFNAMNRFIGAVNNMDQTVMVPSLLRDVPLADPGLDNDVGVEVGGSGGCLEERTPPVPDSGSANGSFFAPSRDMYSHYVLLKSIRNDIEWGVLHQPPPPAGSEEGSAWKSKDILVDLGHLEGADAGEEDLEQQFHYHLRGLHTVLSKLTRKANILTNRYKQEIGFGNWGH
UniProt Q9BZM5, whole entry: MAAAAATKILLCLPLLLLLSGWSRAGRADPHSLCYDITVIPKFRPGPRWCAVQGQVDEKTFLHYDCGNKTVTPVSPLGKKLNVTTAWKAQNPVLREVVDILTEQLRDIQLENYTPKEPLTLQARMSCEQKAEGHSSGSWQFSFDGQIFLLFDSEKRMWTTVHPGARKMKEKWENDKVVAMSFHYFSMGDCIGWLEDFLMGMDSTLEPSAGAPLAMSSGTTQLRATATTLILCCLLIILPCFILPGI
UniProt Q9HCD6: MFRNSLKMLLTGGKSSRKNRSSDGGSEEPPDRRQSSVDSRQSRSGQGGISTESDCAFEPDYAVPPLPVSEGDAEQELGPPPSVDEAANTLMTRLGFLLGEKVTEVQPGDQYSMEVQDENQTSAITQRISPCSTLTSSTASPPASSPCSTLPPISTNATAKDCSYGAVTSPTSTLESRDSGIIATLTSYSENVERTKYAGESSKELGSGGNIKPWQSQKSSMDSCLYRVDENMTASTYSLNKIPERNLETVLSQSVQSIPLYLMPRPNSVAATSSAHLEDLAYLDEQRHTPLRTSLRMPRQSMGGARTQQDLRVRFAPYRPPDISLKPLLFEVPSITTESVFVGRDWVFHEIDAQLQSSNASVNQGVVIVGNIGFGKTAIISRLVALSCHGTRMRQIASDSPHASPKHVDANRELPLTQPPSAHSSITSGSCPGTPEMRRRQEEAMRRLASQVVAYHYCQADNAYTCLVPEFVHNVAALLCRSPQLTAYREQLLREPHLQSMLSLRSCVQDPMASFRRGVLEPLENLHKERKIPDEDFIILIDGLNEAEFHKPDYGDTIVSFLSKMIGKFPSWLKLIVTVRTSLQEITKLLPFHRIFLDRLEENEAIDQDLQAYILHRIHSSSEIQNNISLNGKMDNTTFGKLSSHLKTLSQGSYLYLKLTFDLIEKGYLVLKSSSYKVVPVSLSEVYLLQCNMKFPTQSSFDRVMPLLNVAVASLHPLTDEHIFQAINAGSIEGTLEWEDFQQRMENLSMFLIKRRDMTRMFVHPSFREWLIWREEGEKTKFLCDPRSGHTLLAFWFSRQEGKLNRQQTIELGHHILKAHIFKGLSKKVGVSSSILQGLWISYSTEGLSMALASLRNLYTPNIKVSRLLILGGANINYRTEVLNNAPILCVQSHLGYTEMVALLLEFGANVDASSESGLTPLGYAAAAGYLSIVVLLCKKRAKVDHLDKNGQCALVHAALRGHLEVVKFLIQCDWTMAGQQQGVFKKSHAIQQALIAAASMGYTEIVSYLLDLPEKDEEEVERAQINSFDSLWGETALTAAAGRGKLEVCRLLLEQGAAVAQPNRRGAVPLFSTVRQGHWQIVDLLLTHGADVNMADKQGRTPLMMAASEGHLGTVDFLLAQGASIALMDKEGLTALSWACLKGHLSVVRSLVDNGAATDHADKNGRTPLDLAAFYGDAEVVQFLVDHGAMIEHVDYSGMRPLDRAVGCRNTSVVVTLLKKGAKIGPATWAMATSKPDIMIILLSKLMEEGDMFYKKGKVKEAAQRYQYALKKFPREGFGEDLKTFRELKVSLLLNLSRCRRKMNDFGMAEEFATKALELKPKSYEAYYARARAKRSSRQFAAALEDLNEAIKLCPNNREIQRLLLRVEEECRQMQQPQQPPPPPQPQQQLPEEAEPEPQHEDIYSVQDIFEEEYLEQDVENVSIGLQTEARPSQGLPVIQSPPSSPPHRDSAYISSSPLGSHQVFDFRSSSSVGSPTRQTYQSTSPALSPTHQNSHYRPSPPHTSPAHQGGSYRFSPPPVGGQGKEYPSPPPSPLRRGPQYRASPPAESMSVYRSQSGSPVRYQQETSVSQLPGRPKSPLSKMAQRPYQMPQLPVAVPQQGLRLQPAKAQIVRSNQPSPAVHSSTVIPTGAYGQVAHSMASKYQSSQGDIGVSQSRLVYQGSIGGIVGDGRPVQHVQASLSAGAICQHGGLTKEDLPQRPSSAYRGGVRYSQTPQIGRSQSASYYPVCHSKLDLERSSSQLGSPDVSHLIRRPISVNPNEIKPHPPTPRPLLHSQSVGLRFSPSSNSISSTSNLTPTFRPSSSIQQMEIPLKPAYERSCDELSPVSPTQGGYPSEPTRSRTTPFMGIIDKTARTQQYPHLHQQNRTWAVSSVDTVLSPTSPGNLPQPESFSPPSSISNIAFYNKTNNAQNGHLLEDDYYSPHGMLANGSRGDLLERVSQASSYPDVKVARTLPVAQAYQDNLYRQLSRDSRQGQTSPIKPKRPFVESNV
UniProt Q9HC07: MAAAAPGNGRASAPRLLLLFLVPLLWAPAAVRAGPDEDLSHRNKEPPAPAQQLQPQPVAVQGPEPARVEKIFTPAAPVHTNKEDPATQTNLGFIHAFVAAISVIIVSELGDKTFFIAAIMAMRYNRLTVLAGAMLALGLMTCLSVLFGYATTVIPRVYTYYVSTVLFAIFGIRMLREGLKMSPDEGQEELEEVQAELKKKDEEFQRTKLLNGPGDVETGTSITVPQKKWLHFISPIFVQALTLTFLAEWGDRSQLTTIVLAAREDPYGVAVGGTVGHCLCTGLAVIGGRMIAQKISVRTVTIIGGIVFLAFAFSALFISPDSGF
UniProt Q9H467: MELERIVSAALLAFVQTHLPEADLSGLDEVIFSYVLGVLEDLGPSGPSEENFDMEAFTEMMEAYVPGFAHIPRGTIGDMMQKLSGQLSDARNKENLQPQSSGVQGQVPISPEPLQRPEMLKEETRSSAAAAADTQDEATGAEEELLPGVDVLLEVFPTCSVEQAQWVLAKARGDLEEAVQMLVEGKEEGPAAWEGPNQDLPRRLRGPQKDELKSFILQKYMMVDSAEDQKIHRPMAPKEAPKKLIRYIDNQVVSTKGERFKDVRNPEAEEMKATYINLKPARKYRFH
UniProt Q9H4L4: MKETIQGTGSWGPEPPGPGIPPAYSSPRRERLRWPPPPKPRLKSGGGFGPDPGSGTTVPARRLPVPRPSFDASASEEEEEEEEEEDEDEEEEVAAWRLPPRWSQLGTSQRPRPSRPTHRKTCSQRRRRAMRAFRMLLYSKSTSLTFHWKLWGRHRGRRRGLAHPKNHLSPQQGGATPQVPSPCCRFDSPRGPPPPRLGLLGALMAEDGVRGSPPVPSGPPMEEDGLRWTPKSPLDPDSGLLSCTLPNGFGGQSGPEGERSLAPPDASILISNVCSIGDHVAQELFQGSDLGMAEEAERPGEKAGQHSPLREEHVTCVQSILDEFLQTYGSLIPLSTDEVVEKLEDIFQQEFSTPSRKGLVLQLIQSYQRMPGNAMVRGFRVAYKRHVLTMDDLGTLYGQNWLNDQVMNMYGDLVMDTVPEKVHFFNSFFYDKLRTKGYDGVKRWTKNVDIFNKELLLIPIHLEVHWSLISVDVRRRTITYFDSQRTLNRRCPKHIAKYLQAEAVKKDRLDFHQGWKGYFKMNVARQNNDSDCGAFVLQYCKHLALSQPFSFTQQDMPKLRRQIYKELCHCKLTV
UniProt Q9H2J4: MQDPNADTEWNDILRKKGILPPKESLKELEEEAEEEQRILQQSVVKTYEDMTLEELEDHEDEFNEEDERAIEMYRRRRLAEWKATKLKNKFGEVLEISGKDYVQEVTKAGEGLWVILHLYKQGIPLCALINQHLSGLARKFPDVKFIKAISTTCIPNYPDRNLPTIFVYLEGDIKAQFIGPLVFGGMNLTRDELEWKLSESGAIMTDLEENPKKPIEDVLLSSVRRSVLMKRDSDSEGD
UniProt Q9H267: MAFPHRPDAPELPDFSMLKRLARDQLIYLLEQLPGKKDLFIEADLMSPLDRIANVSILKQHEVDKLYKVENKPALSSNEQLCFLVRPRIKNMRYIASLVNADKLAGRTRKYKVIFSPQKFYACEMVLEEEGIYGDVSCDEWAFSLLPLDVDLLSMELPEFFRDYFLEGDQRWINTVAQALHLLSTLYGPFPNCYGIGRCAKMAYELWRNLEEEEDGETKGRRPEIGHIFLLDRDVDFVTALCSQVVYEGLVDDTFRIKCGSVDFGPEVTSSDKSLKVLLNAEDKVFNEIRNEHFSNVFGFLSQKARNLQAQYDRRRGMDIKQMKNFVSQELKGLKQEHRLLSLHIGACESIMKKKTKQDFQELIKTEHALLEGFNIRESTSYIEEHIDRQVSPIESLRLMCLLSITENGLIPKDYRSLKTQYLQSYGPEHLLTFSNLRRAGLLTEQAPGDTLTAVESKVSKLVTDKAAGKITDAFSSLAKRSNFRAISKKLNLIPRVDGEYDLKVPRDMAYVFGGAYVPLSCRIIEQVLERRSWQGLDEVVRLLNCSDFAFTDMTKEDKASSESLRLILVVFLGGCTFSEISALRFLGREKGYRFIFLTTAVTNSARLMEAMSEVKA
UniProt Q9H082: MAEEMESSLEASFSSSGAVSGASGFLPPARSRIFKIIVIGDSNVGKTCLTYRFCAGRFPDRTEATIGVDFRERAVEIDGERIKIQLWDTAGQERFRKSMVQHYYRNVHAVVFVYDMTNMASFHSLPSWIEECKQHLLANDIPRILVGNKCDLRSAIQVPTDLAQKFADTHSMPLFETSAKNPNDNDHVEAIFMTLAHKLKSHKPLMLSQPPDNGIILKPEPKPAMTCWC
UniProt Q9H871: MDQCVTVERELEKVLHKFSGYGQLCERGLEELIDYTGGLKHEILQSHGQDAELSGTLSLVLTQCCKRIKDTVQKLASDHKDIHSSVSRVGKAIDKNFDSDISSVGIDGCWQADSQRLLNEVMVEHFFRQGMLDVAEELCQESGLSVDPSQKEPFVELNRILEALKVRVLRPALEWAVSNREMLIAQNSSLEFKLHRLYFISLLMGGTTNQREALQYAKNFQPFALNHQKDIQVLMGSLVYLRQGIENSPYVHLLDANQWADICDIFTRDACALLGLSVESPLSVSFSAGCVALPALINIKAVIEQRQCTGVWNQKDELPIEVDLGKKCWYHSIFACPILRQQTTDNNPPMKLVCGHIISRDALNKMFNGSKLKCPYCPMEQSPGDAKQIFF
UniProt Q9HB40: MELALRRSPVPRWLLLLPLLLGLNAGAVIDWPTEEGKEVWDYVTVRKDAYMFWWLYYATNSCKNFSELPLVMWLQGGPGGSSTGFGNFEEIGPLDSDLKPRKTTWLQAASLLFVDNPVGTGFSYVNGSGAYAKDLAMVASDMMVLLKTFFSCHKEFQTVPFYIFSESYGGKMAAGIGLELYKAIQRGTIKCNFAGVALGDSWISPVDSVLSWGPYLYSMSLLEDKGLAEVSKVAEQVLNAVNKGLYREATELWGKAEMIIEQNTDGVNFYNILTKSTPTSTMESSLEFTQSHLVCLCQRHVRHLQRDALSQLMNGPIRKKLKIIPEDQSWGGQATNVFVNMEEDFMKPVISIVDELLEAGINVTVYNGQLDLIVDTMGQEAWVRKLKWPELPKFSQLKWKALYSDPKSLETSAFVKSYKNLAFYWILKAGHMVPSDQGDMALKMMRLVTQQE
UniProt Q9C035: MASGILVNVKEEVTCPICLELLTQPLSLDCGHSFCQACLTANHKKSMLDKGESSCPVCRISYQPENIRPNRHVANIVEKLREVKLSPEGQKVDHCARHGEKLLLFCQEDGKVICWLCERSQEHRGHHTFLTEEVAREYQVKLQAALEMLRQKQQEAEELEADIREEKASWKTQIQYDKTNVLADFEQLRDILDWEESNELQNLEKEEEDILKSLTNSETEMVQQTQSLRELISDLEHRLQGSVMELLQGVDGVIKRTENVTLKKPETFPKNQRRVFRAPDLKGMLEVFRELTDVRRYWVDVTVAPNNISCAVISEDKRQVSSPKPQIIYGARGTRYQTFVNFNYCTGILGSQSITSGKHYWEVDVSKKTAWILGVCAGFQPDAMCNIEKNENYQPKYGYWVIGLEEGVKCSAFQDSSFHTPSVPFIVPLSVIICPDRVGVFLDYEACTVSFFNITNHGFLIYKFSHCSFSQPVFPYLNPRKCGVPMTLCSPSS

Compound: Nc1ncnc2c1ncn2[C@@H]1O[C@H](COP(=O)(O)OP(=O)(O)NP(=O)(O)O)[C@@H](O)[C@H]1O [adenylyl imidodiphosphate]
Test: NP40-soluble protein abundance relative to vehicle (solubility fold change) (ratio); higher = more soluble protein in presence of AMP-PNP
How it was run: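 Jurkat crude lysate prepared with a Dounce homogeniser was treated at eight concentrations spanning 0.1 to 10 mM, 10 min at room temperature then 3 min at 37 °C. Solubilisation with 0.8% NP40 and benzonase and ultracentrifugation preceded TMT labelling of the supernatant for LC-MS/MS. Fold change against the detergent-processed vehicle was determined per replicate from vsn-normalised intensities, across three independent experiments.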

Target	NP40-soluble protein abundance (concentration: 1mM)	NP40-soluble protein abundance (concentration: 2mM)	NP40-soluble protein abundance (concentration: 4mM)	NP40-soluble protein abundance (concentration: 6mM)	NP40-soluble protein abundance (concentration: 8mM)	NP40-soluble protein abundance (concentration: 10mM)
TM9SF3 (UniProt Q9HD45)	0.985 ± 0.043	0.933 ± 0.03	0.978 ± 0.05	0.996 ± 0.069	1.02 ± 0.06	1 ± 0.074
PUS3 (UniProt Q9BZE2)	1.01 ± 0.013	0.997 ± 0.0053	1 ± 0.026	1.03 ± 0.054	0.978 ± 0.032	0.974 ± 0.019
MTIF3 (UniProt Q9H2K0)	0.963 ± 0.026	1.05 ± 0.029	0.9992 ± 0.007	1.002 ± 0.006	1.04 ± 0.032	1.02 ± 0.013
POFUT1 (UniProt Q9H488)	0.997 ± 0.04	0.975 ± 0.043	1.04 ± 0.086	1.05 ± 0.064	1.03 ± 0.062	1.05 ± 0.034
UniProt Q9NPA3	1.01 ± 0.038	0.997 ± 0.035	1.01 ± 0.053	0.9782 ± 0.0094	0.975 ± 0.018	0.971 ± 0.042
ACBD3 (UniProt Q9H3P7)	1.04 ± 0.019	1.02 ± 0.026	1.02 ± 0.015	1.003 ± 0.0074	1 ± 0.037	0.997 ± 0.024
CDT1 (UniProt Q9H211)	1.02 ± 0.027	1.09 ± 0.12	1.04 ± 0.032	1.03 ± 0.041	1.03 ± 0.053	1.01 ± 0.018
RAB18 (UniProt Q9NP72)	0.997 ± 0.033	0.961 ± 0.06	0.977 ± 0.04	0.979 ± 0.03	0.997 ± 0.046	0.947 ± 0.047
ULBP2 (UniProt Q9BZM5)	1.08 ± 0.016	1.08 ± 0.059	1.07 ± 0.016	1.06 ± 0.064	1.05 ± 0.013	1.036 ± 0.008
UniProt Q9H8P0 and related entries	0.933 ± 0.084	0.9132 ± 0.0065	0.948 ± 0.063	0.999 ± 0.14	1.02 ± 0.12	1.05 ± 0.15
UniProt Q9HCD6 and related entries	1.014 ± 0.0088	1.03 ± 0.03	0.9865 ± 0.0061	1.019 ± 0.0037	0.999 ± 0.013	0.99957 ± 4.1e-05
UniProt Q9BZK7 and related entries	1.01 ± 0.03	0.955 ± 0.017	1 ± 0.04	1.03 ± 0.051	1.06 ± 0.021	1.04 ± 0.078
TMEM165 (UniProt Q9HC07)	1.06 ± 0.061	1.09 ± 0.09	1.04 ± 0.046	1.05 ± 0.046	1.04 ± 0.038	1.04 ± 0.03
CUEDC2 (UniProt Q9H467)	1.01 ± 0.024	1.06 ± 0.05	1 ± 0.041	0.992 ± 0.021	0.987 ± 0.037	0.984 ± 0.092
UniProt Q9H0A0 and related entries	1.47 ± 0.19	1.5 ± 0.19	1.62 ± 0.21	1.66 ± 0.17	1.79 ± 0.25	1.8 ± 0.17
PARVG (UniProt Q9HBI0)	0.993 ± 0.019	0.995 ± 0.039	1 ± 0.033	0.942 ± 0.014	0.931 ± 0.018	0.932 ± 0.02
MYH16 (UniProt Q9H6N6)	0.979 ± 0.034	0.973 ± 0.036	0.94 ± 0.038	0.963 ± 0.023	0.918 ± 0.022	0.97 ± 0.06
VPS16 (UniProt Q9H269)	1.014 ± 0.0028	0.909 ± 0.076	0.978 ± 0.042	0.9357 ± 0.0082	0.988 ± 0.058	0.911 ± 0.046
SENP3 (UniProt Q9H4L4)	0.982 ± 0.03	0.98 ± 0.06	0.945 ± 0.065	0.953 ± 0.089	0.938 ± 0.066	0.925 ± 0.096
UniProt Q9H2G9 and related entries	0.986 ± 0.039	0.992 ± 0.027	1.01 ± 0.013	0.977 ± 0.031	0.9649 ± 0.009	0.988 ± 0.011

Single records, as listed above.
UniProt Q9BZK7 and related entries is entered as NP40-soluble protein abundance (concentration: 1mM): 1.01 ± 0.03; NP40-soluble protein abundance (concentration: 2mM): 0.955 ± 0.017; NP40-soluble protein abundance (concentration: 4mM): 1 ± 0.04; NP40-soluble protein abundance (concentration: 6mM): 1.03 ± 0.051; NP40-soluble protein abundance (concentration: 8mM): 1.06 ± 0.021; NP40-soluble protein abundance (concentration: 10mM): 1.04 ± 0.078
POFUT1 (UniProt Q9H488) is entered as NP40-soluble protein abundance (concentration: 1mM): 0.997 ± 0.04; NP40-soluble protein abundance (concentration: 2mM): 0.975 ± 0.043; NP40-soluble protein abundance (concentration: 4mM): 1.04 ± 0.086; NP40-soluble protein abundance (concentration: 6mM): 1.05 ± 0.064; NP40-soluble protein abundance (concentration: 8mM): 1.03 ± 0.062; NP40-soluble protein abundance (concentration: 10mM): 1.05 ± 0.034
ULBP2 (UniProt Q9BZM5) is entered as NP40-soluble protein abundance (concentration: 1mM): 1.08 ± 0.016; NP40-soluble protein abundance (concentration: 2mM): 1.08 ± 0.059; NP40-soluble protein abundance (concentration: 4mM): 1.07 ± 0.016; NP40-soluble protein abundance (concentration: 6mM): 1.06 ± 0.064; NP40-soluble protein abundance (concentration: 8mM): 1.05 ± 0.013; NP40-soluble protein abundance (concentration: 10mM): 1.036 ± 0.008
UniProt Q9NPA3 is entered as NP40-soluble protein abundance (concentration: 1mM): 1.01 ± 0.038; NP40-soluble protein abundance (concentration: 2mM): 0.997 ± 0.035; NP40-soluble protein abundance (concentration: 4mM): 1.01 ± 0.053; NP40-soluble protein abundance (concentration: 6mM): 0.9782 ± 0.0094; NP40-soluble protein abundance (concentration: 8mM): 0.975 ± 0.018; NP40-soluble protein abundance (concentration: 10mM): 0.971 ± 0.042

Further records follow:

Target	NP40-soluble protein abundance (concentration: 1mM)	NP40-soluble protein abundance (concentration: 2mM)	NP40-soluble protein abundance (concentration: 4mM)	NP40-soluble protein abundance (concentration: 6mM)	NP40-soluble protein abundance (concentration: 8mM)	NP40-soluble protein abundance (concentration: 10mM)
PDCL3 (UniProt Q9H2J4)	0.94 ± 0.032	0.959 ± 0.019	0.939 ± 0.066	0.922 ± 0.038	0.925 ± 0.048	0.92 ± 0.066
UniProt Q9H9A5 and related entries	0.977 ± 0.019	1.03 ± 0.027	1.07 ± 0.049	1.1 ± 0.061	1.13 ± 0.076	1.17 ± 0.1
WDR54 (UniProt Q9H977)	0.992 ± 0.02	0.99 ± 0.011	1.02 ± 0.051	1.01 ± 0.04	1.02 ± 0.039	0.969 ± 0.042
OSGEPL1 (UniProt Q9H4B0)	1.07 ± 0.02	1.04 ± 0.05	1.04 ± 0.046	1.05 ± 0.04	1.01 ± 0.021	1 ± 0.07
UniProt Q9H2G2-2	1.02 ± 0.0055	1.04 ± 0.039	1 ± 0.036	1.002 ± 0.01	0.961 ± 0.039	0.996 ± 0.06
DEF6 (UniProt Q9H4E7)	1.03 ± 0.014	1.05 ± 0.058	1.01 ± 0.014	1.03 ± 0.023	0.999 ± 0.013	1.02 ± 0.03
VPS33B (UniProt Q9H267)	0.956 ± 0.028	0.895 ± 0.11	0.966 ± 0.011	0.935 ± 0.02	0.937 ± 0.0095	0.932 ± 0.019
UniProt Q9H9Y6 and related entries	1.03 ± 0.034	0.99 ± 0.11	1.06 ± 0.058	1.06 ± 0.11	1.08 ± 0.12	1.03 ± 0.13
RAB33B (UniProt Q9H082)	1.04 ± 0.028	1 ± 0.025	1.03 ± 0.02	1.04 ± 0.042	1.03 ± 0.047	1.02 ± 0.074
UniProt Q9H0R4 and related entries	0.982 ± 0.051	0.932 ± 0.039	0.9323 ± 0.0072	0.988 ± 0.049	0.947 ± 0.052	0.957 ± 0.043
WDR11 (UniProt Q9BZH6)	0.9948 ± 0.0063	0.956 ± 0.01	0.937 ± 0.033	0.975 ± 0.042	0.953 ± 0.034	0.921 ± 0.029
UniProt Q9C0I1 and related entries	0.987 ± 0.034	0.966 ± 0.066	0.973 ± 0.057	0.971 ± 0.017	0.976 ± 0.019	0.962 ± 0.043
GOLPH3 (UniProt Q9H4A6)	1.04 ± 0.048	1.04 ± 0.038	1.03 ± 0.045	1.02 ± 0.053	1.04 ± 0.054	1.02 ± 0.059
UniProt Q9H871	0.961 ± 0.028	0.951 ± 0.058	0.961 ± 0.055	0.951 ± 0.068	0.945 ± 0.056	0.929 ± 0.079
POLR3F (UniProt Q9H1D9)	0.959 ± 0.035	0.97 ± 0.08	0.962 ± 0.042	1.04 ± 0.062	1.03 ± 0.077	1.02 ± 0.087
QRSL1 (UniProt Q9H0R6)	0.972 ± 0.024	1 ± 0.066	1.01 ± 0.046	0.996 ± 0.039	0.973 ± 0.038	0.987 ± 0.037
UniProt Q9H0S4 and related entries	0.994 ± 0.061	0.981 ± 0.022	1.11 ± 0.089	1.25 ± 0.12	1.39 ± 0.13	1.46 ± 0.14
EGLN1 (UniProt Q9GZT9)	1.034 ± 0.0081	1.06 ± 0.039	1.04 ± 0.031	1.01 ± 0.012	0.998 ± 0.012	1.01 ± 0.043
UniProt Q9H334 and related entries	0.965 ± 0.017	1.01 ± 0.042	0.949 ± 0.015	0.9751 ± 0.0078	0.961 ± 0.013	0.9748 ± 0.0088
MRPL44 (UniProt Q9H9J2)	1.01 ± 0.068	0.983 ± 0.064	0.995 ± 0.11	0.959 ± 0.13	0.971 ± 0.11	0.975 ± 0.17

Target	NP40-soluble protein abundance (concentration: 1mM)	NP40-soluble protein abundance (concentration: 2mM)	NP40-soluble protein abundance (concentration: 4mM)	NP40-soluble protein abundance (concentration: 6mM)	NP40-soluble protein abundance (concentration: 8mM)	NP40-soluble protein abundance (concentration: 10mM)
ZWILCH (UniProt Q9H900)	0.981 ± 0.017	0.933 ± 0.08	1.01 ± 0.048	0.946 ± 0.025	0.964 ± 0.041	0.968 ± 0.075
UniProt Q9HDC9	0.961 ± 0.021	0.928 ± 0.03	0.956 ± 0.014	0.954 ± 0.049	0.973 ± 0.036	0.946 ± 0.028
NUCKS1 (UniProt Q9H1E3)	1.02 ± 0.037	1.11 ± 0.079	1.03 ± 0.046	1.07 ± 0.033	1.07 ± 0.035	1.04 ± 0.059
SCPEP1 (UniProt Q9HB40)	0.982 ± 0.03	1.02 ± 0.087	0.992 ± 0.038	0.97 ± 0.056	0.963 ± 0.045	0.963 ± 0.086
UniProt Q9C0D5 and related entries	0.9719 ± 0.0076	0.984 ± 0.075	0.956 ± 0.046	0.991 ± 0.035	0.937 ± 0.023	0.975 ± 0.026
UniProt Q9HBL7	1.02 ± 0.049	0.98 ± 0.06	0.989 ± 0.035	0.997 ± 0.015	1 ± 0.03	0.979 ± 0.02
UniProt Q9H330-2	0.983 ± 0.042	1 ± 0.019	0.969 ± 0.04	0.977 ± 0.057	0.932 ± 0.038	0.965 ± 0.019
ACTR8 (UniProt Q9H981)	1.033 ± 0.0093	1.02 ± 0.038	1.06 ± 0.019	1.07 ± 0.028	1.06 ± 0.023	1.07 ± 0.017
UniProt Q9H8M5 and related entries	0.993 ± 0.031	0.964 ± 0.033	0.9686 ± 0.0069	0.987 ± 0.039	0.972 ± 0.013	0.969 ± 0.025
UniProt Q9HCN4 and related entries	1.01 ± 0.047	1.06 ± 0.099	1 ± 0.039	0.976 ± 0.033	0.956 ± 0.032	0.96 ± 0.014
UniProt Q9H974 and related entries	1.01 ± 0.05	0.985 ± 0.079	1.01 ± 0.058	0.973 ± 0.04	1.01 ± 0.067	0.981 ± 0.059
UniProt Q9H8K7	1.02 ± 0.032	1.01 ± 0.015	1.01 ± 0.03	1 ± 0.036	0.952 ± 0.021	0.957 ± 0.037
UniProt Q9BZQ6-2	1.01 ± 0.051	0.995 ± 0.045	0.978 ± 0.049	0.9891 ± 0.0052	0.9728 ± 0.007	0.963 ± 0.016
UniProt Q9C0B5 and related entries	1.03 ± 0.019	1.04 ± 0.019	1.03 ± 0.034	1.01 ± 0.038	0.982 ± 0.025	1.01 ± 0.011
UniProt Q9HCJ3 and related entries	1.01 ± 0.042	1.01 ± 0.029	0.974 ± 0.015	0.987 ± 0.017	0.974 ± 0.031	0.991 ± 0.058
UniProt Q9HAF1 and related entries	0.983 ± 0.03	1.04 ± 0.049	1.02 ± 0.044	1.08 ± 0.06	1.11 ± 0.07	1.19 ± 0.11
TOLLIP (UniProt Q9H0E2)	0.9922 ± 0.0099	1.05 ± 0.062	1.02 ± 0.027	1 ± 0.027	1.02 ± 0.018	1.05 ± 0.058
UNK (UniProt Q9C0B0)	1.071 ± 0.0069	1.12 ± 0.056	1.11 ± 0.021	1.09 ± 0.072	1.1 ± 0.045	1.11 ± 0.033
UniProt Q9C035 and related entries	1.01 ± 0.051	1.06 ± 0.086	1.03 ± 0.055	1.04 ± 0.037	1.05 ± 0.027	1.05 ± 0.045
UniProt Q9H7E9 and related entries	1.04 ± 0.075	1.05 ± 0.068	1.05 ± 0.07	1.05 ± 0.062	1.04 ± 0.043	1.06 ± 0.086
